Test results from article PMC13133936.

Target: T1, Tle1 (PA3290), type VI lipase effector, bacterial two-hybrid fusion (Pseudomonas aeruginosa (PAO1)) (UniProt Q9HYV3)
T1 sequence: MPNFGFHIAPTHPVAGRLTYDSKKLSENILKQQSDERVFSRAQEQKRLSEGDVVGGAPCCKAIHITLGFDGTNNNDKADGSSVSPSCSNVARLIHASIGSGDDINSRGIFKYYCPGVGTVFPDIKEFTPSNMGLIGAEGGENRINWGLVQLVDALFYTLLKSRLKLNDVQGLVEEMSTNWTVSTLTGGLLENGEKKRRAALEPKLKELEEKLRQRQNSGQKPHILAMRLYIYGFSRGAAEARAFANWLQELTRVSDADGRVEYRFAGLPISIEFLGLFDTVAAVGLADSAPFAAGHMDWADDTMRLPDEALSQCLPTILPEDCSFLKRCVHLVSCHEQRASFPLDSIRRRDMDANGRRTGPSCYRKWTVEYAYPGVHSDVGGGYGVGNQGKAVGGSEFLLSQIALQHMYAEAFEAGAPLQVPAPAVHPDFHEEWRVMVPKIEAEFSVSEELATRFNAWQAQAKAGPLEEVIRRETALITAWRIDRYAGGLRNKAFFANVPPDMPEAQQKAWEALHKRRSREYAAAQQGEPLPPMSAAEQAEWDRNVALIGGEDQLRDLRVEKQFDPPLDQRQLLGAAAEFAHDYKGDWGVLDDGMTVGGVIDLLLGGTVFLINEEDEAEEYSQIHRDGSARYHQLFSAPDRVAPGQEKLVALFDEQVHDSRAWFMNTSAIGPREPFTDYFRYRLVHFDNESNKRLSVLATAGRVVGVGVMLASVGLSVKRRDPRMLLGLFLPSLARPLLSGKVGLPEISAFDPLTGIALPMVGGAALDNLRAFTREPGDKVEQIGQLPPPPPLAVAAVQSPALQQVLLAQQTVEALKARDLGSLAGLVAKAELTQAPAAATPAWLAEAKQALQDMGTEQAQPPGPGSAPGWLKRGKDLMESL
Assay: two-hybrid; bacterial adenylate cyclase two-hybrid (BACTH): proteins or domains fused to the T18 or T25 domain of B. pertussis adenylate cyclase, coproduced in E. coli BTH101, spotted on X-gal indicator plates; blue colony reflects interaction; triplicate

Substance	binding
Tli1b (PA3292) without its lipoprotein signal sequence, bacterial two-hybrid fusion (Pseudomonas aeruginosa (PAO1))	no binding
Tli1a (PA3291) without its lipoprotein signal sequence, bacterial two-hybrid fusion (Pseudomonas aeruginosa (PAO1))	binds

These are yes or no findings as the source states them, for the method shown. Binding can be weak; no strength is given. Sequences can lack the tags named with a protein.
